# Experimental data taken from the supplement of paper PMC6411743.
# ± gives the standard deviation of the averaged measurements. The entries are a selection whose mix differs from that of the whole data set.
# What was measured:
# Test in all cases: NP40-soluble protein abundance relative to vehicle (solubility fold change) (ratio); higher = more soluble protein in presence of AMP-PNP
# UniProt Q9BUA3 = target: T1, UniProt Q9BUA3
# T1 sequence (whole entry): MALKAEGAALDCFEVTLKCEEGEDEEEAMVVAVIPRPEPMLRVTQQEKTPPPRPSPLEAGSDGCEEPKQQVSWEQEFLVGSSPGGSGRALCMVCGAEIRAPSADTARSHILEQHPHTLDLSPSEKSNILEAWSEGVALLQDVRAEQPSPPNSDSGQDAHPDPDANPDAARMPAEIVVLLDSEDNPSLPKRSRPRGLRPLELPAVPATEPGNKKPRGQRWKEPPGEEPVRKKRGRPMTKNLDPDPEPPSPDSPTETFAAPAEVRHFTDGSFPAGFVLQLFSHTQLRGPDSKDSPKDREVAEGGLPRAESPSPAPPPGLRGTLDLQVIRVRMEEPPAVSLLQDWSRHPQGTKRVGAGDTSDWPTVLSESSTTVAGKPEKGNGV
# Summary of the method: (§1)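 Jurkat crude lysate prepared with a Dounce homogeniser was treated at eight concentrations spanning 0.1 to 10 mM, 10 min at room temperature then 3 min at 37 °C. Solubilisation with 0.8% NP40 and benzonase and ultracentrifugation preceded TMT labelling of the supernatant for LC-MS/MS. Fold change against the detergent-processed vehicle was determined per replicate from vsn-normalised intensities, across three independent experiments.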
# [1] = target: T2, UniProt Q9BUJ2 and related entries
# T2 sequence (whole entry): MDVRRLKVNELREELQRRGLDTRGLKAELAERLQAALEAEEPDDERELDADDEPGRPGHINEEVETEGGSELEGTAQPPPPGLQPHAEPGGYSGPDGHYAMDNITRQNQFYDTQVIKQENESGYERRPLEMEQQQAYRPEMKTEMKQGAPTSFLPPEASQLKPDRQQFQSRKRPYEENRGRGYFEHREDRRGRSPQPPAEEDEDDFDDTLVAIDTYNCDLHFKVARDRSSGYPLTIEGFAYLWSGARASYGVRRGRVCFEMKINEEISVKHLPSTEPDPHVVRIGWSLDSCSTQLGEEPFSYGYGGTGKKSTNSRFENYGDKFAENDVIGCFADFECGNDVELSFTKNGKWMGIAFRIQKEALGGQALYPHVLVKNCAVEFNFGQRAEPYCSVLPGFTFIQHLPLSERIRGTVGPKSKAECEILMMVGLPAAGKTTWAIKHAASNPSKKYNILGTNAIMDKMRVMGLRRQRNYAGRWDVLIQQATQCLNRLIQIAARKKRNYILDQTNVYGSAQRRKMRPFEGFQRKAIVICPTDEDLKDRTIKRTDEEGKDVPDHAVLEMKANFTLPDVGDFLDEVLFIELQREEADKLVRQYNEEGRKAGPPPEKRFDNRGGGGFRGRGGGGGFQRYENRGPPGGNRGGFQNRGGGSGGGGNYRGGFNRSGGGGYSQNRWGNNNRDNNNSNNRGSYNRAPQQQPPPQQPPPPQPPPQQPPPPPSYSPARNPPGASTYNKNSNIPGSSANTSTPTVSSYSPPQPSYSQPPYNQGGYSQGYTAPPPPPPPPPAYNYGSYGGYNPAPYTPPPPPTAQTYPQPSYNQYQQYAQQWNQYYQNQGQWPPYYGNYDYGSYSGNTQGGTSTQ
# Summary of the method: as §1
# UniProt Q9BVV7 = target: T3, UniProt Q9BVV7
# T3 sequence (whole entry): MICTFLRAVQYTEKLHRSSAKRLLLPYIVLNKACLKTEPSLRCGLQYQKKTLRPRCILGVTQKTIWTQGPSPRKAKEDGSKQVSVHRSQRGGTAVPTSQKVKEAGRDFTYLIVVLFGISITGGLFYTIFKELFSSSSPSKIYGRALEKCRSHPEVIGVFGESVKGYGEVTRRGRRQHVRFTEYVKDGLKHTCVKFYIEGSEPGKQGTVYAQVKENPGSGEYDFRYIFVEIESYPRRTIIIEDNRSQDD
# Summary of the method: as §1
# [2] = target: T4, UniProt Q9BX63 and related entries
# T4 sequence (whole entry): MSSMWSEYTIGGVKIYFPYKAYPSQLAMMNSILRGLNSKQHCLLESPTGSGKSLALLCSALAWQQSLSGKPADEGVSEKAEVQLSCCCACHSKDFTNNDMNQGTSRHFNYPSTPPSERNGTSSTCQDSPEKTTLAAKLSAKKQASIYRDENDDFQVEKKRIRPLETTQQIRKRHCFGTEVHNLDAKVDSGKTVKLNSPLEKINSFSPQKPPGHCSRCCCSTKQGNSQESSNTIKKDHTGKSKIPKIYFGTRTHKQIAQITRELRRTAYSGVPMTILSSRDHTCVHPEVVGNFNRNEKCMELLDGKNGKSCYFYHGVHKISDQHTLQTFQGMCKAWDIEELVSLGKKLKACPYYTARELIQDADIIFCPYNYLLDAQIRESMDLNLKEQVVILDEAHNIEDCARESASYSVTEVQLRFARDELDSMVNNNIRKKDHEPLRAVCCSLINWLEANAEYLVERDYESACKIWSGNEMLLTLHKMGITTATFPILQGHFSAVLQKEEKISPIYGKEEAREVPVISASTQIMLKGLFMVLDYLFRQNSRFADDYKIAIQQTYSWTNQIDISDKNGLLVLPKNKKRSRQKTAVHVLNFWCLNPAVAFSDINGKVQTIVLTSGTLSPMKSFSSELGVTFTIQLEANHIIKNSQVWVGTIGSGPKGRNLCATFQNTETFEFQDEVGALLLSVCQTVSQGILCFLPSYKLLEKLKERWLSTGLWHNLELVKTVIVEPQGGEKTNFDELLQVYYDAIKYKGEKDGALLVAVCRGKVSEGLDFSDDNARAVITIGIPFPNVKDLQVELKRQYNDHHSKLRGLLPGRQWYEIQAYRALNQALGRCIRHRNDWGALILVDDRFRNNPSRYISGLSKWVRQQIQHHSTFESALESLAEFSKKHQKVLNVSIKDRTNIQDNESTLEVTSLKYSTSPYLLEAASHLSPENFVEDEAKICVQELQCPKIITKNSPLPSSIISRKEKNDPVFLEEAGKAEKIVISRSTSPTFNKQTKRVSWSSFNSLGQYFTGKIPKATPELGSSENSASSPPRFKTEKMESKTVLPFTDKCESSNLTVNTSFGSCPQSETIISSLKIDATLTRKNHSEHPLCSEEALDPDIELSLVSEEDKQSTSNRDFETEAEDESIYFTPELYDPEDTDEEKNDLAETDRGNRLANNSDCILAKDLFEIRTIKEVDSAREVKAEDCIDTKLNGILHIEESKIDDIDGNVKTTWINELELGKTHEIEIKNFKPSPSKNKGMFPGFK
# Summary of the method: as §1
# UniProt Q9BXJ9 = target: T5, UniProt Q9BXJ9
# T5 sequence (whole entry): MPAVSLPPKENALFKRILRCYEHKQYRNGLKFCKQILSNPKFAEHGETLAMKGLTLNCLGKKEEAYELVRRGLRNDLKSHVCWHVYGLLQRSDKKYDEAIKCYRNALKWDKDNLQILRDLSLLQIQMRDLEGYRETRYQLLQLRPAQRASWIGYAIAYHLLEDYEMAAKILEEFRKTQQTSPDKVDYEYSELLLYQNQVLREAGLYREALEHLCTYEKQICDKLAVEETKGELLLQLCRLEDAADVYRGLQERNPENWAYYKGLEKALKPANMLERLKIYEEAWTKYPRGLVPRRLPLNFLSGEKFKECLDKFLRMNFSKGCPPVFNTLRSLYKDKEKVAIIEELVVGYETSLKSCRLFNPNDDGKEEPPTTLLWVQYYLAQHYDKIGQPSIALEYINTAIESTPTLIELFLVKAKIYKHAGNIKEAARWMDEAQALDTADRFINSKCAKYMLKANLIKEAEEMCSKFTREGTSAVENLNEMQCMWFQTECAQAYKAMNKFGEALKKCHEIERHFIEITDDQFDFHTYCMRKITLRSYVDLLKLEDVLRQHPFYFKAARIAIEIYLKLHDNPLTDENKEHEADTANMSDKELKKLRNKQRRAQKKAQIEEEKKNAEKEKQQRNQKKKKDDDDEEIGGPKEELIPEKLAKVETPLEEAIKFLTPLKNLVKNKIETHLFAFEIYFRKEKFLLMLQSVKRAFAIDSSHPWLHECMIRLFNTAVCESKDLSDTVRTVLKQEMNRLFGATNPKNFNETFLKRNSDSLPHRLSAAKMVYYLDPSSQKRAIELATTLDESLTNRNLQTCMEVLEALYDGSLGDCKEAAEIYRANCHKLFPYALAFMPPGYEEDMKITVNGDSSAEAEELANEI
# Summary of the method: as §1
smiles,measurement,setting,value
Nc1ncnc2c1ncn2[C@@H]1O[C@H](COP(=O)(O)OP(=O)(O)NP(=O)(O)O)[C@@H](O)[C@H]1O [adenylyl imidodiphosphate],NP40-soluble protein abundance,UniProt Q9BUA3; concentration: 8mM,0.977 ± 0.046
same,NP40-soluble protein abundance,UniProt Q9BUA3; concentration: 10mM,0.981 ± 0.043
same,NP40-soluble protein abundance,[1]; concentration: 1mM,1.04 ± 0.021
same,NP40-soluble protein abundance,[1]; concentration: 2mM,1.05 ± 0.03
same,NP40-soluble protein abundance,[1]; concentration: 4mM,1.02 ± 0.019
same,NP40-soluble protein abundance,[1]; concentration: 6mM,1.01 ± 0.042
same,NP40-soluble protein abundance,[1]; concentration: 8mM,1.01 ± 0.043
same,NP40-soluble protein abundance,[1]; concentration: 10mM,0.976 ± 0.071
same,NP40-soluble protein abundance,UniProt Q9BVV7; concentration: 1mM,1.033 ± 0.0061
same,NP40-soluble protein abundance,UniProt Q9BVV7; concentration: 2mM,1.03 ± 0.078
same,NP40-soluble protein abundance,UniProt Q9BVV7; concentration: 4mM,1.04 ± 0.028
same,NP40-soluble protein abundance,UniProt Q9BVV7; concentration: 6mM,1.02 ± 0.036
same,NP40-soluble protein abundance,UniProt Q9BVV7; concentration: 8mM,1.0081 ± 9.9e-05
same,NP40-soluble protein abundance,UniProt Q9BVV7; concentration: 10mM,1.053 ± 0.0067
same,NP40-soluble protein abundance,[2]; concentration: 1mM,0.996 ± 0.038
same,NP40-soluble protein abundance,[2]; concentration: 2mM,1.01 ± 0.039
same,NP40-soluble protein abundance,[2]; concentration: 4mM,0.989 ± 0.019
same,NP40-soluble protein abundance,[2]; concentration: 6mM,0.98 ± 0.017
same,NP40-soluble protein abundance,[2]; concentration: 8mM,0.994 ± 0.046
same,NP40-soluble protein abundance,[2]; concentration: 10mM,0.983 ± 0.024
same,NP40-soluble protein abundance,UniProt Q9BXJ9; concentration: 1mM,1.01 ± 0.033
same,NP40-soluble protein abundance,UniProt Q9BXJ9; concentration: 2mM,0.98 ± 0.085
same,NP40-soluble protein abundance,UniProt Q9BXJ9; concentration: 4mM,1.03 ± 0.051
same,NP40-soluble protein abundance,UniProt Q9BXJ9; concentration: 6mM,1.03 ± 0.042
same,NP40-soluble protein abundance,UniProt Q9BXJ9; concentration: 8mM,1.06 ± 0.043

# Reprinted at random: two records from the list, in no set order.
smiles,measurement,setting,value
Nc1ncnc2c1ncn2[C@@H]1O[C@H](COP(=O)(O)OP(=O)(O)NP(=O)(O)O)[C@@H](O)[C@H]1O [adenylyl imidodiphosphate],NP40-soluble protein abundance,[2]; concentration: 2mM,1.01 ± 0.039
same,NP40-soluble protein abundance,[1]; concentration: 4mM,1.02 ± 0.019
